# This is one part of the list.
# Molecular target: T1, OsSMF1 (Oryza sativa, UniProt Q6ZLB0 1-436)
# T1 sequence: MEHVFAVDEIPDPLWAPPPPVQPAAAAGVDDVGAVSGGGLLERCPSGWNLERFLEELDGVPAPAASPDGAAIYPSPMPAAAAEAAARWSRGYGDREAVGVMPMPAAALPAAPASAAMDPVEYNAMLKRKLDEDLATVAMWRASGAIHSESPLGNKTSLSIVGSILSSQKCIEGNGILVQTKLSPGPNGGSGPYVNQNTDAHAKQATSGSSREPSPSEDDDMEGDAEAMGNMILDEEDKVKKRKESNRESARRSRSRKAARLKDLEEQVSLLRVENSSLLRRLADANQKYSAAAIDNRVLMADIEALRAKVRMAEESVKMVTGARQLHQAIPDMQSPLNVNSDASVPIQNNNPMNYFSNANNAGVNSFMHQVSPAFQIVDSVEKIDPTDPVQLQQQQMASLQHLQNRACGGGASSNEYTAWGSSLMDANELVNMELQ
# Experiment: protein-binding microarray (RPBM); PBS, 2% BSA, 51.3 ng/ul salmon testes DNA, 50 uM zinc acetate, 200 nM TF, 25 C, 1 h; high values mean tight binding
# Details: protein: recombinant; tags: N-terminal polyhistidine and DsRed monomer fusion (pET32a); chain copies: 2; label: CyDye5-dUTP incorporated in the synthesized complementary strand; 3' TTTTT single-stranded linker to array surface; dsDNA, one strand shown
# In short: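 The binding signal for each feature is its fluorescence intensity in arbitrary units. An Axon 4000B scanner was used to read a custom Agilent array that had been made double-stranded with Cy5-dUTP primer extension, blocked with 2% BSA, incubated at 25 °C for 1 h with 200 nM protein in PBS, 2% BSA, salmon testes DNA and 50 µM zinc acetate, and washed. The protein was an N-terminal polyhistidine–DsRed transcription factor fusion from E. coli BL21-CodonPlus, purified on Ni–NTA.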
row,Sequence,binding signal
1,TGTCCAAAGCCCACACTGACACGTGGGCCCGAAGCGCACTCGGAGTCACCTAGTGCAG,10300 fluorescence intensity (a.u.)
2,TTAGCATCAGAAGCTTTAAACTTTTGAGCTAGTCTCAGTGCGGAGTCACCTAGTGCAG,3180 fluorescence intensity (a.u.)
3,GCAAATGGCGCTGTGCTTGAACCGCAAGGGAGAGAAGAGGCGGAGTCACCTAGTGCAG,29000 fluorescence intensity (a.u.)
4,TGACATGTGGGGCCCACGCTGACTCAGCCGCCACGTCAGACGGAGTCACCTAGTGCAG,19600 fluorescence intensity (a.u.)
5,CCTCCCTCAACTGCTGACTCAAACGAGTCAACCGCCGAACCGGAGTCACCTAGTGCAG,7030 fluorescence intensity (a.u.)
6,GAGAATTTGCTACTAATTGACTTACCAATTTGGAATTTACCGGAGTCACCTAGTGCAG,46100 fluorescence intensity (a.u.)
7,TGAAAATGATGTCAATCAAACATGAGTGGGGCCTGCTTTGCGGAGTCACCTAGTGCAG,3290 fluorescence intensity (a.u.)
8,GACCTAGCTAAAGTGTTCTTTTGTTGATGTATTTCCAATCCGGAGTCACCTAGTGCAG,3260 fluorescence intensity (a.u.)
9,ATACTATTAAACCTGCTCTTATAAAGGTCAGACATCATGCCGGAGTCACCTAGTGCAG,3200 fluorescence intensity (a.u.)
10,TAGGAATTAAGCCACATATTTTGGCCAGGCGATGACGGAACGGAGTCACCTAGTGCAG,3300 fluorescence intensity (a.u.)
11,AACGAGTGAAGCTCACTGCGGCTAGCTGCTGTCTTGTGTTCGGAGTCACCTAGTGCAG,3380 fluorescence intensity (a.u.)
12,TGGTGTTGTTGGTGTCGTCTTGTTCTTGTTTGTGTTTTCTCGGAGTCACCTAGTGCAG,3310 fluorescence intensity (a.u.)
13,TGAAAAGTGAAAACCGGTTTTCCACAGGTGATCTCTGAAACGGAGTCACCTAGTGCAG,24500 fluorescence intensity (a.u.)
14,GTGCTCTGGAGGAGTTTGGTCTCGATCATCATCTCTCTGACGGAGTCACCTAGTGCAG,3420 fluorescence intensity (a.u.)
15,TGTCACTGTTGCTGTCGTTGGCAGGGAATTTGGTGATTCACGGAGTCACCTAGTGCAG,4490 fluorescence intensity (a.u.)
16,GCACCTCGCAATATCCATGGTCCCCGCTGCCCGTGGACTCCGGAGTCACCTAGTGCAG,41200 fluorescence intensity (a.u.)
17,TCATTCAATATTTACTCGATCGTCATCCATCTCTAAACACCGGAGTCACCTAGTGCAG,3270 fluorescence intensity (a.u.)
18,CATCAAAATCGTTGTCTGACTCGGTCTCTTCTAGCTCGCGCGGAGTCACCTAGTGCAG,5070 fluorescence intensity (a.u.)
19,ATTCTATGCCAGTGTGACTCGATTTGTGTGTGTCGCAATGCGGAGTCACCTAGTGCAG,4640 fluorescence intensity (a.u.)
20,GATTGTGTCGCCCACCGCCTCGTCGACATCTGCACGTCTCCGGAGTCACCTAGTGCAG,4150 fluorescence intensity (a.u.)
21,CCACAAACATGCAAGACCAAATTCAACTTCTACAAGTTGTCGGAGTCACCTAGTGCAG,13900 fluorescence intensity (a.u.)
22,GGCCGTCTCTTCTGCGGCGGCGGCGGCGGAGATCCGGCAACGGAGTCACCTAGTGCAG,25300 fluorescence intensity (a.u.)
23,CGTGCCAATAGCCGTAGTTGAGAGGGACAAGGGAGTTTGGCGGAGTCACCTAGTGCAG,34800 fluorescence intensity (a.u.)

# Quoted at random: two entries already listed, in no set order.
row,Sequence,binding signal
11,AACGAGTGAAGCTCACTGCGGCTAGCTGCTGTCTTGTGTTCGGAGTCACCTAGTGCAG,3380 fluorescence intensity (a.u.)
16,GCACCTCGCAATATCCATGGTCCCCGCTGCCCGTGGACTCCGGAGTCACCTAGTGCAG,41200 fluorescence intensity (a.u.)
